Data published in the supplement of paper PMC4604168 (melanoma cell lines).
The list shows a part of the results. Single values are uncertain, as repeats are few or missing.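 The apoptosis fraction was the count of cleaved-PARP antibody-stained nuclei relative to all DNA-stained nuclei, imaged in 1,536-well plates. Screening doses were set so most cells survived, and baseline and induced cleaved-PARP levels vary greatly across cell lines.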

Legend:
Test in all cases: cleaved PARP positive nuclei fraction relative to DMSO control; melanoma cells; higher = more apoptosis
Settings in all cases: library dose: low library concentration; 72 h
501Mel = tested on: 501Mel
A101D = tested on: A101D
A2058 = tested on: A2058
A375 = tested on: A375
C32 = tested on: C32
CBRC008 = tested on: CBRC008 (line from a melanoma biopsy)
CBRC014 = tested on: CBRC014 (line from a melanoma biopsy)
CBRC016 = tested on: CBRC016 (line from a melanoma biopsy)
CBRC017 = tested on: CBRC017 (line from a melanoma biopsy)
CBRC013 = tested on: CBRC013 (line from a melanoma biopsy)

| Compound | cleaved PARP positive nuclei fraction (501Mel) | cleaved PARP positive nuclei fraction (A101D) | cleaved PARP positive nuclei fraction (A2058) | cleaved PARP positive nuclei fraction (A375) | cleaved PARP positive nuclei fraction (C32) | cleaved PARP positive nuclei fraction (CBRC008) | cleaved PARP positive nuclei fraction (CBRC014) | cleaved PARP positive nuclei fraction (CBRC016) | cleaved PARP positive nuclei fraction (CBRC017) | cleaved PARP positive nuclei fraction (CBRC013) |
| --- | --- | --- | --- | --- | --- | --- | --- | --- | --- | --- |
| C=CCNC1=C2C[C@@H](C)C[C@H](OC)[C@H](O)[C@@H](C)/C=C(\C)[C@H](OC(N)=O)[C@@H](OC)/C=C\C=C(/C)C(=O)NC(=CC1=O)C2=O [Tanespimycin] + Cn1c(Nc2ccc(C(F)(F)F)cc2)nc2cc(Oc3ccnc(-c4ncc(C(F)(F)F)[nH]4)c3)ccc21 [CHIR265] (first compound 0.002 µM, partner dose 0.08 µM) | 266% | 147% | 109% | 132% | 83.5% | 794% | 139% | 248% | 142% | – |
| CC1(C)NC(=O)N(c2ccc([N+](=O)[O-])c(C(F)(F)F)c2)C1=O [nilutamide] + CCc1ccc(CCOc2ccc(CC3SC(=O)NC3=O)cc2)nc1 [pioglitazone] (first compound 1 µM, partner dose 2 µM) | 80.4% | 110% | 101% | 156% | 76.6% | – | 105% | 99.6% | 73.7% | 46.4% |
| CC(=O)c1c(C)c2cnc(Nc3ccc(N4CCNCC4)cn3)nc2n(C2CCCC2)c1=O [palbociclib] + Nc1cccc2c1CN(C1CCC(=O)NC1=O)C2=O [lenalidomide] (first compound 0.04 µM, partner dose 1 µM) | 190% | 44.5% | 103% | 394% | 91.5% | 29.9% | 108% | 104% | 122% | – |
| COc1cc(Nc2ncc(F)c(Nc3ccc4c(n3)NC(=O)C(C)(C)O4)n2)cc(OC)c1OC [Tamatinib] + CCc1ccc(CCOc2ccc(CC3SC(=O)NC3=O)cc2)nc1 [pioglitazone] (first compound 0.4 µM, partner dose 2 µM) | 136% | 140% | 26.1% | 99.4% | 272% | – | 91.4% | 78.4% | 81.3% | 68.5% |
| C#Cc1cccc(Nc2ncnc3cc(OCCOC)c(OCCOC)cc23)c1 [erlotinib] + Cn1c(Nc2ccc(C(F)(F)F)cc2)nc2cc(Oc3ccnc(-c4ncc(C(F)(F)F)[nH]4)c3)ccc21 [CHIR265] (first compound 0.8 µM, partner dose 0.08 µM) | 268% | 51.2% | 182% | 109% | 79.4% | 101% | 108% | 114% | 110% | – |
| Cc1nc(Nc2ncc(C(=O)Nc3c(C)cccc3Cl)s2)cc(N2CCN(CCO)CC2)n1 [dasatanib] + COCC[n+]1c2c(n(Cc3cnccn3)c1C)C(=O)c1ccccc1C2=O [YM155] (first compound 0.004 µM, partner dose 0.0004 µM) | 152% | 297% | 43.7% | 185% | 89.3% | 260% | 107% | 163% | 124% | – |
| C=CCNC1=C2C[C@@H](C)C[C@H](OC)[C@H](O)[C@@H](C)/C=C(\C)[C@H](OC(N)=O)[C@@H](OC)/C=C\C=C(/C)C(=O)NC(=CC1=O)C2=O [Tanespimycin] + Cc1nc(Nc2ncc(C(=O)Nc3c(C)cccc3Cl)s2)cc(N2CCN(CCO)CC2)n1 [dasatanib] (first compound 0.002 µM, partner dose 0.004 µM) | 111% | 48.8% | 152% | 70.1% | 157% | 105% | 111% | 56.3% | 150% | – |
| Clc1ccc(Nc2nnc(Cc3ccncc3)c3ccccc23)cc1 [vatalanib] + COCC[n+]1c2c(n(Cc3cnccn3)c1C)C(=O)c1ccccc1C2=O [YM155] (first compound 2 µM, partner dose 0.0004 µM) | 174% | 153% | 187% | 168% | 84.6% | 90.5% | 115% | 244% | 106% | – |
| Cn1c(Nc2ccc(C(F)(F)F)cc2)nc2cc(Oc3ccnc(-c4ncc(C(F)(F)F)[nH]4)c3)ccc21 + COc1cc(N2CCC(N3CCN(C)CC3)CC2)ccc1Nc1ncc(Cl)c(Nc2ccccc2S(=O)(=O)C(C)C)n1 [NVP-TAE684] (first compound 0.08 µM, partner dose 0.08 µM) | 113% | 184% | 151% | 184% | 35.5% | – | 257% | 51.1% | 119% | 1520% |
| Cn1nnc2c(C(N)=O)ncn2c1=O [temozolomide] + O=S(=O)(c1ccccc1)N(CC(F)(F)F)c1ccc(C(O)(C(F)(F)F)C(F)(F)F)cc1 [T0901317] (first compound 2 µM, partner dose 1.4 µM) | 82.4% | 15.7% | 213% | 108% | 94.2% | – | 119% | 33.5% | 75.1% | 40% |
| COc1cc(Nc2ncc(F)c(Nc3ccc4c(n3)NC(=O)C(C)(C)O4)n2)cc(OC)c1OC [Tamatinib] + COc1cc2ncnc(Nc3ccc(Oc4ccccc4)cc3)c2cc1OC [SrcI1] (first compound 0.4 µM, partner dose 2 µM) | 48.9% | 195% | 36.2% | 127% | 60.8% | – | 96.5% | 92.7% | 109% | 140% |
| OCCn1cc(-c2cnc3nnn(Cc4ccc5ncccc5c4)c3n2)cn1 + N#Cc1c(O)c2c(-c3ccc(-c4ccccc4O)cc3)csc2[nH]c1=O [A769662] (first compound 1 µM, partner dose 2 µM) | 101% | 79% | 153% | 103% | 60.8% | – | 88.9% | 60.6% | 97.7% | 307% |
| Clc1ccc(Nc2nnc(Cc3ccncc3)c3ccccc23)cc1 [vatalanib] + C#Cc1cccc(Nc2ncnc3cc(OCCOC)c(OCCOC)cc23)c1 [erlotinib] (first compound 2 µM, partner dose 0.8 µM) | 84.5% | 94% | 316% | 103% | 72.9% | 368% | 118% | 54.9% | 175% | – |
| C#Cc1cccc(Nc2ncnc3cc(OCCOC)c(OCCOC)cc23)c1 [erlotinib] + C[C@]1(c2nc3c(C(N)=O)cccc3[nH]2)CCCN1 [Veliparib] (first compound 0.8 µM, partner dose 1.4 µM) | 62.3% | 105% | 105% | 188% | 38.9% | 290% | 94.6% | 35.4% | 85.6% | – |
| C=CCNC1=C2C[C@@H](C)C[C@H](OC)[C@H](O)[C@@H](C)/C=C(\C)[C@H](OC(N)=O)[C@@H](OC)/C=C\C=C(/C)C(=O)NC(=CC1=O)C2=O [Tanespimycin] + C[C@]1(c2nc3c(C(N)=O)cccc3[nH]2)CCCN1 [Veliparib] (first compound 0.002 µM, partner dose 1.4 µM) | 165% | 48.8% | 205% | 90.9% | 353% | 53.4% | 83.7% | 172% | 111% | – |
| C#Cc1cccc(Nc2ncnc3cc(OCCOC)c(OCCOC)cc23)c1 [erlotinib] + Cc1nc(Nc2ncc(C(=O)Nc3c(C)cccc3Cl)s2)cc(N2CCN(CCO)CC2)n1 [dasatanib] (first compound 0.8 µM, partner dose 0.004 µM) | 50.4% | 57% | 76.7% | 126% | 203% | 135% | 107% | 96.3% | 107% | – |
| C=CCn1c(=O)c2cnc(Nc3ccc(N4CCN(C)CC4)cc3)nc2n1-c1cccc(C(C)(C)O)n1 + c1cc(-c2cnn3cc(-c4ccc(OCCN5CCCCC5)cc4)cnc23)ccn1 [Dorsomorphin] (first compound 0.02 µM, partner dose 0.4 µM) | 97.6% | 308% | 126% | 151% | 113% | – | 109% | 95.3% | 109% | 50% |
| CC(=O)c1c(C)c2cnc(Nc3ccc(N4CCNCC4)cn3)nc2n(C2CCCC2)c1=O [palbociclib] + Cn1nnc2c(C(N)=O)ncn2c1=O [temozolomide] (first compound 0.04 µM, partner dose 2 µM) | 97% | 151% | 236% | 155% | 456% | 72.4% | 99% | 36.4% | 96.2% | – |
| Clc1ccc(Nc2nnc(Cc3ccncc3)c3ccccc23)cc1 [vatalanib] + C[C@]1(c2nc3c(C(N)=O)cccc3[nH]2)CCCN1 [Veliparib] (first compound 2 µM, partner dose 1.4 µM) | 120% | 231% | 93.5% | 123% | 75.7% | 40.5% | 127% | 124% | 139% | – |
| COc1cc(Nc2ncc(F)c(Nc3ccc4c(n3)NC(=O)C(C)(C)O4)n2)cc(OC)c1OC [Tamatinib] + Oc1nc(-c2ccc(C(F)(F)F)cc2)nc2c1CSCC2 [XAV939] (first compound 0.4 µM, partner dose 2 µM) | 159% | 197% | 164% | 130% | 384% | – | 92.8% | 20.9% | 82.8% | 150% |
| COCC[n+]1c2c(n(Cc3cnccn3)c1C)C(=O)c1ccccc1C2=O + Nc1cccc2c1CN(C1CCC(=O)NC1=O)C2=O [lenalidomide] (first compound 0.0004 µM, partner dose 1 µM) | 63.8% | 99.8% | 83% | 237% | 75.1% | 746% | 92% | 203% | 79% | – |
| CC(=O)c1c(C)c2cnc(Nc3ccc(N4CCNCC4)cn3)nc2n(C2CCCC2)c1=O [palbociclib] + OCc1c[nH]c2ccccc12 [Indole-3-carbinol] (first compound 0.04 µM, partner dose 0.8 µM) | 95% | 79.1% | 42.9% | 80.7% | 193% | 82.6% | 118% | 254% | 117% | – |
| CC(=O)c1c(C)c2cnc(Nc3ccc(N4CCNCC4)cn3)nc2n(C2CCCC2)c1=O [palbociclib] + Cn1c(Nc2ccc(C(F)(F)F)cc2)nc2cc(Oc3ccnc(-c4ncc(C(F)(F)F)[nH]4)c3)ccc21 [CHIR265] (first compound 0.04 µM, partner dose 0.08 µM) | 163% | 166% | 99.9% | 864% | 219% | 59.5% | 110% | 190% | 127% | – |
| C[C@]1(c2nc3c(C(N)=O)cccc3[nH]2)CCCN1 [Veliparib] + Cn1nnc2c(C(N)=O)ncn2c1=O [temozolomide] (first compound 1.4 µM, partner dose 2 µM) | 81.6% | 44.6% | 133% | 176% | 74.5% | 65.3% | 180% | 106% | 81.1% | – |
| C#Cc1cccc(Nc2ncnc3cc(OCCOC)c(OCCOC)cc23)c1 [erlotinib] + O=C(Nc1ccccc1)c1cc([N+](=O)[O-])ccc1Cl [GW9662] (first compound 0.8 µM, partner dose 2 µM) | 57% | 189% | 118% | 227% | 57.9% | – | 111% | 76.6% | 85% | 62.1% |
| NC(=O)Nc1cc(-c2cccc(F)c2)sc1C(=O)N[C@H]1CCCNC1 + O=C(O)C(=O)Nc1sc2c(c1C(=O)O)CCNC2 [TCS401] (first compound 0.02 µM, partner dose 1.66667 µM) | 92.3% | 114% | 109% | 416% | 179% | – | 116% | 128% | 62.5% | 89.2% |
| C[C@@H]1CCN(C(=O)CC#N)C[C@@H]1N(C)c1ncnc2[nH]ccc12 + O=C(O)C(=O)Nc1sc2c(c1C(=O)O)CCNC2 [TCS401] (first compound 1 µM, partner dose 1.66667 µM) | 76.3% | 61.4% | 83.7% | 91.5% | 65.3% | – | 83.4% | 19.4% | 73.5% | 43.3% |
| O=C(Nc1cccc(Cl)c1)Nc1ncc(CCNc2ncnc3ccsc23)s1 + COc1ccc(-c2ccc3c(N4CCOCC4)nc(N4C[C@@H](C)O[C@@H](C)C4)nc3n2)cc1CO [KU0063794] (first compound 0.0008 µM, partner dose 0.02 µM) | 81.1% | 101% | 95.6% | 274% | 156% | – | 104% | 84.3% | 82.5% | 176% |
| C[C@]1(c2nc3c(C(N)=O)cccc3[nH]2)CCCN1 [Veliparib] + CCCCCCCCCCCC1=C(O)C(=O)C=C(O)C1=O [Embelin] (first compound 1.4 µM, partner dose 1.2 µM) | 179% | 86.6% | 70.7% | 78.2% | 77.1% | – | 105% | 119% | 99.6% | 228% |
| C[C@@H]1CCN(C(=O)CC#N)C[C@@H]1N(C)c1ncnc2[nH]ccc12 + CC(C)CCN1c2nc(Nc3cc(F)c(O)c(F)c3)ncc2N(C)C(=O)C1C [BID1870] (first compound 1 µM, partner dose 0.2 µM) | 147% | 234% | 90.7% | 50.7% | 50.4% | – | 91.2% | 117% | 140% | 33% |

As entered above.
Under cleaved PARP positive nuclei fraction (A2058), C[C@@H]1CCN(C(=O)CC#N)C[C@@H]1N(C)c1ncnc2[nH]ccc12 + CC(C)CCN1c2nc(Nc3cc(F)c(O)c(F)c3)ncc2N(C)C(=O)C1C [BID1870] (first compound 1 µM, partner dose 0.2 µM) has 90.7%
Under cleaved PARP positive nuclei fraction (A2058), OCCn1cc(-c2cnc3nnn(Cc4ccc5ncccc5c4)c3n2)cn1 + N#Cc1c(O)c2c(-c3ccc(-c4ccccc4O)cc3)csc2[nH]c1=O [A769662] (first compound 1 µM, partner dose 2 µM) has 153%
